Measurements taken from US20220096511A1, “ANTIFUNGAL AGENTS WITH IMPROVED WATER SOLUBILITY” (priority 2019, published 2022).
Values after ≈ are worked out from the molar mass of the structure shown.

System: Candida albicans
Experiment: Minimum inhibitory concentration (MIC) testing, diffusion disc assay
Assay type: cell-based
Details: diffusion paper disc, overnight at 30° C., average of three experiments, read-out: Inhibition of Candida albicans (MIC)
Procedure: Minimum inhibitory concentration (MIC) testing was determined for nystatin ethanol amide along with comparative antifungal agents.
Nystatin (Solid) and amphotericin were dissolved in DMF in 1 mg/mL. Econazole nitrate and Nystatin ethanol amide (salt) were dissolved in PBS to achieve 1 mg/mL.
Antibiotic medium 19 was sterilized in autoclave, after sterilization when the temperature lowered to 45° C. and 1 mL from spore suspension was added. 8 mL from this mixture dispensed to each petri dish.
On each dish 6 sterile diffusion paper disc were placed, 10 μL from each antibiotic were applied in 10, 15, 20, 25, 30, 35 μg/mL concentrations. Where MIC concentrations were below 10, lower concentrations were used: 2, 5, 7.5 μg/mL
The petri dishes were incubated overnight at 30° C. The MIC were determined as the lower concentration that inhibition could be visualized.
Observations. In this diffusion disc assay we measured the minimal concentration applied by each compound needed to inhibit the growth of C. albicans and A. niger. […] Amphotericin B inhibit the growth of C. albicans (16 μg/mL) similarly to Nystatin and Nystatin water soluble.

`C[C@@H]1[C@H](O)[C@@H](C)/C=C/C=C/C=C/C=C/C=C/C=C/C=C/[C@H](O[C@@H]2O[C@H](C)[C@@H](O)[C@H](N)[C@@H]2O)C[C@@H]2O[C@](O)(C[C@@H](O)C[C@@H](O)[C@H](O)CC[C@@H](O)C[C@@H](O)CC(=O)O[C@H]1C)C[C@H](O)[C@H]2C(=O)O` [Amphotericin, amphotericin B] showed an MIC of 16 µg/mL (≈ 17.3 µM).
